## Primary screen of a compound library

The chains behind the UniProt entries cited, without tags or fusion partners.
UniProt P9WPC5, whole entry: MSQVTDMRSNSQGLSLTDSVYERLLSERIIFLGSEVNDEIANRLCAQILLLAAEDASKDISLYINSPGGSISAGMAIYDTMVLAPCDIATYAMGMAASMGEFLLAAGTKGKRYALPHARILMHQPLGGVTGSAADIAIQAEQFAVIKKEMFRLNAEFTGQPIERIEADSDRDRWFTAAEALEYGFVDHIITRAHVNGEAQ
UniProt P9WPC3, whole entry partner: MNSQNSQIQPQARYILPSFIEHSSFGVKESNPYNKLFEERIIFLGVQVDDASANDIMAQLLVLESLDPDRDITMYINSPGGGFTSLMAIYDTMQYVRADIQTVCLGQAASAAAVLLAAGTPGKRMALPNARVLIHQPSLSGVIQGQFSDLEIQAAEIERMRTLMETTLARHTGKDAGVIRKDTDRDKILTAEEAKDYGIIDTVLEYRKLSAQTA
UniProt I6X8D2, whole entry: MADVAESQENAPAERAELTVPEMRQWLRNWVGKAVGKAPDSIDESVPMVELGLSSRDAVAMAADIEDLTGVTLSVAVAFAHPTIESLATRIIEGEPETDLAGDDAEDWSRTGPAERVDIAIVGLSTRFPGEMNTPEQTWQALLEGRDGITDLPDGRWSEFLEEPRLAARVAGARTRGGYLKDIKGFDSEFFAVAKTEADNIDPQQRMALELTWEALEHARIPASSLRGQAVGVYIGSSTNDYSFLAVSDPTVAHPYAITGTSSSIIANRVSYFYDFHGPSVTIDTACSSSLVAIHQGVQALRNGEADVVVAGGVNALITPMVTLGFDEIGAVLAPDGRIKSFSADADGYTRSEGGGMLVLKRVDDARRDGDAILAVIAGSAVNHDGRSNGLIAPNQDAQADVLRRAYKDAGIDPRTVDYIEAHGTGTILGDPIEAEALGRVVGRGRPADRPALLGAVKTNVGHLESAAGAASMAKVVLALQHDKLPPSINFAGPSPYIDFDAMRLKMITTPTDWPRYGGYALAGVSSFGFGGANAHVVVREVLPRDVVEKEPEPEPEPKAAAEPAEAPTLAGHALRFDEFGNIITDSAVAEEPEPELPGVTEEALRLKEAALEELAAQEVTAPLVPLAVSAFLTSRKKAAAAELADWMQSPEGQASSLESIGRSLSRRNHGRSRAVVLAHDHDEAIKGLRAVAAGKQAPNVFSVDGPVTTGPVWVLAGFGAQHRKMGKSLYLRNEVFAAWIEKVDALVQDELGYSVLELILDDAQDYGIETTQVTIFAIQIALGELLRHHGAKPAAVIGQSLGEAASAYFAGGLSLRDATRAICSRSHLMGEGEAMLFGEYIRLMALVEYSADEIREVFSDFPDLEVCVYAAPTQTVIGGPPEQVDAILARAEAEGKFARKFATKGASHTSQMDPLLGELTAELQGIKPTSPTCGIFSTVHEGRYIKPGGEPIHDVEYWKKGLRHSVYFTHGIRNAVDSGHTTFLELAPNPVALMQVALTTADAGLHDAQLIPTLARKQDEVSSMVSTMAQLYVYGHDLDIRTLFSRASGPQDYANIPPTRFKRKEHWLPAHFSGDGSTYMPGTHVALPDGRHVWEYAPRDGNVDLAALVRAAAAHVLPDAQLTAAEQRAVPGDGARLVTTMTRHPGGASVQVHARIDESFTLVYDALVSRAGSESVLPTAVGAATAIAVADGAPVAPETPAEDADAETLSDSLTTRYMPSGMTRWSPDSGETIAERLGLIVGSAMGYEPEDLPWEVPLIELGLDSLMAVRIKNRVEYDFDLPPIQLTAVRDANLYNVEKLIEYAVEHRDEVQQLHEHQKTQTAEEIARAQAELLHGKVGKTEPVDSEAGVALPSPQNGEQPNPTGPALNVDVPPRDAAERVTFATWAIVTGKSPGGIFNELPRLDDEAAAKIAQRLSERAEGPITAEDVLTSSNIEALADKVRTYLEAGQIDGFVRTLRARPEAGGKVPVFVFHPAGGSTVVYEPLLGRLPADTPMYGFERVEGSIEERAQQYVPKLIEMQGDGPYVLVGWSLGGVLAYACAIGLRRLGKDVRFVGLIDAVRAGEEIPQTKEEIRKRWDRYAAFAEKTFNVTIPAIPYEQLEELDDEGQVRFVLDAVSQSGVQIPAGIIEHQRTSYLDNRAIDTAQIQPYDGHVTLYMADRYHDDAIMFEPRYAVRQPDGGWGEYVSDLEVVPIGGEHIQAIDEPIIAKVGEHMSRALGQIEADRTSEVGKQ
UniProt P9WFT3, whole entry: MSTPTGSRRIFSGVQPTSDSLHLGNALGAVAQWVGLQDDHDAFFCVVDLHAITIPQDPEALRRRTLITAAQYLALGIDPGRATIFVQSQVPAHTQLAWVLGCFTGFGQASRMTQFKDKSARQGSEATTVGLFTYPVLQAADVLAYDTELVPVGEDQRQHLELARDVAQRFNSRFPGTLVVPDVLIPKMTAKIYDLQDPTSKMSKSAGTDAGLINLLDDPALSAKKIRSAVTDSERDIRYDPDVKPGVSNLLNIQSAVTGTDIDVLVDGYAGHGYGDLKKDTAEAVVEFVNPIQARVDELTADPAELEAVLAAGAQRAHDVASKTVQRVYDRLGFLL

Source: ChEMBL document CHEMBL3988442, “University of Dundee, Small-Polar-MMV Screening Library” (2021).

ClpP1P2: 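Protease assay of ClpP1P2, read by the AMC dye that it sets free. Target: ClpP1P2, Mycobacterium tuberculosis (UniProt P9WPC5 and UniProt P9WPC3). Tested at 50 µM. Direction is inferred from only a few compounds that gave an IC50; most scored high, so higher reads as stronger inhibition. Most other retested compounds had strongly negative values. Size under these conditions: about 69,000 compounds, about 10 of them at 50% or above in at least one test.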
Pks13 thioesterase: 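Enzyme assay of the thioesterase domain of polyketide synthase 13; the read-out is not stated. Target: Polyketide synthase Pks13, Mycobacterium tuberculosis (UniProt I6X8D2). Compounds at 30 µM. The record gives no direction; the compounds picked for IC50 retests had high values, so higher reads as stronger inhibition. About 67,000 compounds were tested under these conditions; 0.46% (about 300) showed 50% or more at least once.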
MtTrpRS: 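Enzyme assay of tryptophanyl-tRNA synthetase; the read-out is not stated. Target: Tryptophan-tRNA ligase, Mycobacterium tuberculosis (UniProt P9WFT3). Tested at 10 µM. Direction is not recorded; retested compounds ran higher, which suggests that high means inhibition. About 65,000 compounds were tested under these conditions; 0.098% (about 64) showed 50% or more at least once.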

Values are the deposited “Percent Effect”, in %. The controls that fix the scale are not given in the record; negative values are as filed. Compounds were drawn at random from those tested, without regard to their results.

Cc1ccc2nc(CN3CCCCC3CCN3CCOCC3)cn2c1 (centres undefined) gave ClpP1P2: -1.016%; Pks13 thioesterase: -4.855%; MtTrpRS: 0.153%. CNC(=O)[C@@H]1COC[C@H]2CN(C(=O)c3cccc(OC)c3)C[C@H]21 gave ClpP1P2: 11.87%; Pks13 thioesterase: -24.57%; MtTrpRS: 1.057%. Cc1cscc1C(=O)Nc1cc(CSCCO)ccn1 gave ClpP1P2: -24.61%; Pks13 thioesterase: 11.77%; MtTrpRS: 0.1505%. Result for Cc1ccc(NC2CCN(C(=O)c3ccco3)CC2)nn1 was ClpP1P2: -9.921%; Pks13 thioesterase: -3.92%; MtTrpRS: 3.625%. Cc1ccc(N2C[C@@H]3CN(C(=O)c4ccccc4)CCO[C@@H]3C2)nn1 read ClpP1P2: 3.378%; Pks13 thioesterase: 25.79%; MtTrpRS: 12.69%. Cc1nn(C)c(C)c1CC(=O)NCc1cccnc1OC1CCCC1 gave ClpP1P2: -9.191%; Pks13 thioesterase: -1.538%; MtTrpRS: -4.64%. O=C1O[C@@H]2CN(c3cnccn3)C[C@@H]2N1CCCc1ccc(F)cc1 read ClpP1P2: -10.7%; Pks13 thioesterase: 1.364%; MtTrpRS: -3.569%.

Result for NC1CCN(C(=O)c2c(F)cccc2Br)CC1 was ClpP1P2: -3.99%; Pks13 thioesterase: -6.331%; MtTrpRS: -3.112%. Cc1ccc2oc(N3CCN(CC(=O)NC(C)C)CC3)nc2c1 gave ClpP1P2: 1.117%; Pks13 thioesterase: -7.207%; MtTrpRS: 2.015%. For CN(C)C(=O)CCCNc1ncc2c(n1)CCN2c1ccccc1 the result was ClpP1P2: 5.626%; Pks13 thioesterase: -9.025%; MtTrpRS: -3.254%. CN(Cc1cc(C2CC2)[nH]n1)C(=O)c1cnn2ccn(C)c12 gave ClpP1P2: 1.633%; Pks13 thioesterase: -4.716%; MtTrpRS: -1.584%. NC(=O)C1(CNCc2csc(-c3cccs3)n2)CCOCC1 read ClpP1P2: -6.569%; Pks13 thioesterase: -8.608%; MtTrpRS: 0.4656%. Result for Cn1nc(CNC(=O)c2ccc(Cl)cc2)c2c1CCOC2 was ClpP1P2: -13.23%; Pks13 thioesterase: -9.524%; MtTrpRS: 1.213%. With CC(C)(C)n1ncc2c1NC(=O)CC2c1ccc(C(=O)O)cc1 (centres undefined) the screen gave ClpP1P2: -12.93%; Pks13 thioesterase: -32.19%; MtTrpRS: -1.731%.

COc1cccc(CN2CCCC3(CCN(C(CO)CO)C3)C2)c1 (centres undefined) gave ClpP1P2: 0.9941%; Pks13 thioesterase: -35.92%; MtTrpRS: -1.365%. With CN(C)C1CCN(C(=O)NCc2ccc(Cn3cncn3)cc2)CC1 the screen gave ClpP1P2: -11.85%; Pks13 thioesterase: -4.456%; MtTrpRS: -0.8514%. O=C(NCCCN1CCOCC1)c1ccc(-c2ccccc2)[nH]c1=O read ClpP1P2: -23.3%; Pks13 thioesterase: 16.11%; MtTrpRS: -4.159%. With COc1cccc(C(CO)NC(=O)NC(C)C)c1 (centres undefined) the screen gave ClpP1P2: 0.4236%; Pks13 thioesterase: 3.118%; MtTrpRS: 29.12%. With COc1cc(NC(=O)N(C)Cc2ccc(Br)o2)ncn1 the screen gave ClpP1P2: -0.7215%; Pks13 thioesterase: -36.88%; MtTrpRS: -5.513%. Cc1noc(C(C)C)c1C(=O)NCc1ccc2c(c1)OCCO2 read ClpP1P2: -3.515%; Pks13 thioesterase: -9.159%; MtTrpRS: 5.842%. With Cc1ccnc(C(=O)N2C[C@@H]3CN(S(C)(=O)=O)CCO[C@@H]3C2)c1 the screen gave ClpP1P2: -3.48%; Pks13 thioesterase: 1.998%; MtTrpRS: 8.245%.

With CNC(=O)[C@@]12CCC3(CCNCC3)[C@@H]1CN(S(C)(=O)=O)C2 the screen gave ClpP1P2: -11.61%; Pks13 thioesterase: -13.71%; MtTrpRS: -5.535%. With CC(C)(C)Nc1c(C2CCN(C(=O)C3CC3)CC2)nc2ccccn12 the screen gave ClpP1P2: -6.409%; Pks13 thioesterase: -26.53%; MtTrpRS: 8.047%. With CN(Cc1ncc(-c2ccccc2C(=O)O)s1)c1ncccn1 the screen gave ClpP1P2: 7.95%; Pks13 thioesterase: 7.877%; MtTrpRS: 16.38%. With CCc1ccc(-c2cn3c(C(=O)N[C@H](C(N)=O)[C@@H](C)O)csc3n2)cc1 the screen gave ClpP1P2: 8.775%; MtTrpRS: -18.05%. Cc1nc(NC2CCCC2)c2c(n1)c(C)nn2C read ClpP1P2: 4.869%; Pks13 thioesterase: -10.03%; MtTrpRS: 0.2427%. CC(NC(=O)NCc1ccc(Cl)s1)c1ccccn1 (centres undefined) gave ClpP1P2: 7.356%; Pks13 thioesterase: -12.87%; MtTrpRS: -5.166%. With COc1cccn(C(C)C(=O)NC2CCCC2)c1=O (centres undefined) the screen gave ClpP1P2: 0.2476%; Pks13 thioesterase: -21.78%; MtTrpRS: 2.785%.

CN(Cc1nc2c(cnn2C)c(=O)[nH]1)Cc1ccccc1Cl read ClpP1P2: -11.52%; Pks13 thioesterase: -0.5418%; MtTrpRS: 4.782%. For c1csc(CCC2CCCCN2Cc2noc(C3CC3)n2)c1 (centres undefined) the result was ClpP1P2: -14.15%; Pks13 thioesterase: -32.8%; MtTrpRS: -3.289%. c1cnc(N2CCCC3(COCCN(c4nncs4)C3)C2)cn1 (centres undefined) read ClpP1P2: -3.743%; Pks13 thioesterase: 0.5995%; MtTrpRS: 1.395%. Result for N#CC1(C(=O)Nc2ccc(OC(F)F)cc2)CCCC1 was ClpP1P2: -3.395%; Pks13 thioesterase: -9.515%; MtTrpRS: -2.085%. For CCN(CC1COc2ccccc2O1)C(=O)NCCCn1cncn1 (centres undefined) the result was ClpP1P2: -28.46%; Pks13 thioesterase: -2.541%; MtTrpRS: -1.82%. Cc1csc2ncnc(N3CCCC(Cn4cc(C(C)(C)O)nn4)C3)c12 (centres undefined) read ClpP1P2: -8.018%; Pks13 thioesterase: -24.92%; MtTrpRS: -1.412%. Result for Cc1ccc(F)c(S(=O)(=O)NCCc2nnc[nH]2)c1 was ClpP1P2: 0.555%; MtTrpRS: -0.2172%.

Result for CC(=O)N(Cc1noc(C)n1)C1CCN(CCOc2ccccc2)C1 (centres undefined) was ClpP1P2: 13.87%; Pks13 thioesterase: -3.865%; MtTrpRS: 1.394%. COc1ccc(-c2cc(C3CCNCC3)ccn2)cc1 gave ClpP1P2: -11.91%; Pks13 thioesterase: -4.186%; MtTrpRS: 0.07807%. Result for COc1cccc(CN2CCC3(CCN(c4ncc(F)cn4)CC3)C2)c1 was ClpP1P2: 1.779%; Pks13 thioesterase: 14.44%; MtTrpRS: -2.185%. For CNc1nc(CNC(=O)Nc2ccc(OC(C)C)cc2F)cs1 the result was ClpP1P2: 4.76%; Pks13 thioesterase: -26.56%; MtTrpRS: -11.41%.

3 of the entries, repeated:

SMILES,ClpP1P2,Pks13 thioesterase,MtTrpRS
COc1ccc(-c2cc(C3CCNCC3)ccn2)cc1,-11.91,-4.186,0.07807
Cc1cscc1C(=O)Nc1cc(CSCCO)ccn1,-24.61,11.77,0.1505
Cc1ccc2oc(N3CCN(CC(=O)NC(C)C)CC3)nc2c1,1.117,-7.207,2.015